The text below walks through data of PMC4545792.

Common to all, as to assay: affinity purification with mass spectrometry; FLAG-tagged human bait stably expressed in MEL cells induced 72 h with 1.5% DMSO; isolated mitochondria lysed in 50 mM Tris-HCl pH 7.5, 1 mM EDTA, 150 mM NaCl, 1% Nonidet P-40; anti-FLAG agarose overnight at 4°C, washes with 0.1% Nonidet P-40, elution with FLAG peptide, MudPIT MS; empty vector as control
The target of test [1] is T1, FLAG-FECH (human ferrochelatase, wild type) (human) (UniProt P22830).
T1 sequence: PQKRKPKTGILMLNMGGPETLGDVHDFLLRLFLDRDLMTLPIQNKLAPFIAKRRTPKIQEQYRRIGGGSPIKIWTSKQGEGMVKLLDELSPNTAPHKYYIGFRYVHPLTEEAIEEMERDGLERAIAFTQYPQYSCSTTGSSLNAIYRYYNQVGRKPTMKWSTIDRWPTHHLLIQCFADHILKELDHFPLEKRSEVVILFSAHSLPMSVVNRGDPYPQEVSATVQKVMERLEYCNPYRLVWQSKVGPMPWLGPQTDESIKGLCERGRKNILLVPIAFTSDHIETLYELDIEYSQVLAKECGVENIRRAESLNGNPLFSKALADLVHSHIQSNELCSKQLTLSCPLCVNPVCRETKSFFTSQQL

Test [2] has as its target T2, FLAG-PPOX (human protoporphyrinogen oxidase, carboxy terminal FLAG) (human) (UniProt P50336).
T2 sequence: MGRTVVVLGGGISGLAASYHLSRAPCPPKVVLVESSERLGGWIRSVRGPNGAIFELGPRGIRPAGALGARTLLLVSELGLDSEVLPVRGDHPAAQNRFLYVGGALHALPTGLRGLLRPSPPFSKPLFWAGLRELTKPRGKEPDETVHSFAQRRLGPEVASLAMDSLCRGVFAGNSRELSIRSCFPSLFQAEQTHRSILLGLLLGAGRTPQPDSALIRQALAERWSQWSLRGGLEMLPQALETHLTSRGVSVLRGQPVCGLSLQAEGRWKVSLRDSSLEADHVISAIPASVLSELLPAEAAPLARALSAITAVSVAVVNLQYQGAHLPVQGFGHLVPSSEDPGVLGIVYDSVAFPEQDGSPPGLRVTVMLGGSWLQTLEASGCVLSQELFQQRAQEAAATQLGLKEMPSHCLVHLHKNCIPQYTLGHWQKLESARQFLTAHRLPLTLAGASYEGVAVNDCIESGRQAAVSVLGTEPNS

Test [3] addresses T3, FLAG-FECH E343K variant (human ferrochelatase) (human) (UniProt P22830).
T3 sequence: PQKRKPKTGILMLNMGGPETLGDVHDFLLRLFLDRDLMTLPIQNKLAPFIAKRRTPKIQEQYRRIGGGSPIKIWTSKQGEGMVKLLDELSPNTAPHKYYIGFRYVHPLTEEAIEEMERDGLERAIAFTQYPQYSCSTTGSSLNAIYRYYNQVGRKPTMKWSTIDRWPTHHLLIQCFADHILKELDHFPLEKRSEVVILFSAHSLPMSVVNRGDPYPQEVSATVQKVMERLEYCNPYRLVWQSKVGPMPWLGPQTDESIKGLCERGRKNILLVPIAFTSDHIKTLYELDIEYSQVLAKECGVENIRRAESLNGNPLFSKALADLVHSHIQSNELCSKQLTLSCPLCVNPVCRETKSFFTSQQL

Test [4] deals with T4, FLAG-FECH M76H variant (human ferrochelatase) (human) (UniProt P22830).
T4 sequence: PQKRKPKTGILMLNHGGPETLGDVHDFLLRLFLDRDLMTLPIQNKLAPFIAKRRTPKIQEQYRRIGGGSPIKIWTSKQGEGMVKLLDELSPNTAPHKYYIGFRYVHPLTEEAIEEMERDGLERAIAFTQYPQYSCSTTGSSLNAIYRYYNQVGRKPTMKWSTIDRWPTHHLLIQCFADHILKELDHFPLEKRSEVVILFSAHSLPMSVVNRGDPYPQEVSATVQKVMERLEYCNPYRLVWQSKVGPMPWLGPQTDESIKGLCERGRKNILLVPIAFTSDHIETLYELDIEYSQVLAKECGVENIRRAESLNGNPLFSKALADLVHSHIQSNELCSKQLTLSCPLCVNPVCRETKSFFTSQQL

No constants are given. Whether binding was seen depends on the method and setting. In cells and extracts the contact can be indirect. A yes stands for co-enrichment or nearness to the bait. Other partners may have been found. For some assays here: No binding means not detected with the bait. Tags and fused reporters may be left off the sequences shown.

B1: mouse ADP/ATP translocase 2 slc25a5 (ant2) (protein, UniProt P51881 1-298)
chain: MTDAAVSFAKDFLAGGVAAAISKTAVAPIERVKLLLQVQHASKQITADKQYKGIIDCVVRIPKEQGVLSFWRGNLANVIRYFPTQALNFAFKDKYKQIFLGGVDKRTQFWRYFAGNLASGGAAGATSLCFVYPLDFARTRLAADVGKAGAEREFKGLGDCLVKIYKSDGIKGLYQGFNVSVQGIIIYRAAYFGIYDTAKGMLPDPKNTHIFISWMIAQSVTAVAGLTSYPFDTVRRRMMMQSGRKGTDIMYTGTLDCWRKIARDEGSKAFFKGAWSNVLRGMGGAFVLVLYDEIKKYT
Consider B1, for which the binding result in test [1], in test [2], in test [3] and in test [4] was “binds” in each case.

B2: mouse 2-oxoglutarate/malate carrier slc25a11 (ogc) (protein, UniProt Q9CR62 1-314)
chain: MAATASPGAGRMDGKPRTSPKSVKFLFGGLAGMGATVFVQPLDLVKNRMQLSGEGAKTREYKTSFHALTSILKTEGLKGIYTGLSAGLLRQATYTTTRLGIYTVLFERLTGADGTPPGFLLKALIGMTAGATGAFVGTPAEVALIRMTADGRLPADQRRGYKNVFNALVRIAREEGVPTLWRGCIPTMARAVVVNAAQLASYSQSKQFLLDSGYFSDNILCHFCASMISGLVTTAASMPVDIVKTRIQNMRMIDGKPEYKNGLDVLLKVVRYEGFFSLWKGFTPYYARLGPHTVLTFIFLEQMNKAYKRLFLSG
In the case of B2, the binding result in test [1], in test [2], in test [3] and in test [4] was “binds” each time.

B3: mouse sideroflexin-1 (sfxn1) (protein, UniProt Q99JR1 1-322)
chain: MSGEVPPNINIKEPRWDQSTFIGRASHFFTVTDPRNILLTNEQLENARKVVHDYRQGIVPAGLTENELWRAKYAYDSAFHPDTGEKMTLIGRMSAQVPMNMTITGCMMTFYRTTPAVLFWQWINQSFNAVVNYTNRSGDAPLTVNELGTAYVSATTGAVATALGLNALTKRVSPLIGRFVPFAAVAAANCINIPLMRQRELKVGIPVTDENGTRLGESTNAAKQAITQVVISRILMAAPGMAIPPFIMNTLEKKAFLKRFPWMSAPIQVTLVGFCLVFATPLCCALFPQKSSMSVTSLEDELQASIQRTHPEIRRVYFNKGL
Regarding B3, the binding result in test [1], in test [2], in test [3] and in test [4] was “binds” in each case.

B4: mouse ADP/ATP translocase 1 slc25a4 (ant1) (protein, UniProt P48962 1-298)
chain: MGDQALSFLKDFLAGGIAAAVSKTAVAPIERVKLLLQVQHASKQISAEKQYKGIIDCVVRIPKEQGFLSFWRGNLANVIRYFPTQALNFAFKDKYKQIFLGGVDRHKQFWRYFAGNLASGGAAGATSLCFVYPLDFARTRLAADVGKGSSQREFNGLGDCLTKIFKSDGLKGLYQGFSVSVQGIIIYRAAYFGVYDTAKGMLPDPKNVHIIVSWMIAQSVTAVAGLVSYPFDTVRRRMMMQSGRKGADIMYTGTLDCWRKIAKDEGANAFFKGAWSNVLRGMGGAFVLVLYDEIKKYV
Consider B4, for which the binding result in test [1], in test [2], in test [3] and in test [4] was “binds” each time.

B5: mouse transmembrane protein 14C (tmem14c) (protein, UniProt Q9CQN6 1-114)
chain: MQKDSGPLMPLHYFGFGYAALVATGGIIGYAKAGSVPSLAAGLFFGGLAGLGAYQLSQDPRNVWVFLATSGTLAGIMGMRFYNSGKFMPAGLIAGASLLMVAKVGISLLSSPHP
For B5, the binding result in test [2] is “binds”.

B6: mouse metalloreductase steap3 (steap3) (enzyme, UniProt Q8CI59 1-488)
chain: MSGEMDKPLISRRLVDSDGSLAEVPKEAPKVGILGSGDFARSLATRLVGSGFSVVVGSRNPKRTAGLFPSLAQVTFQEEAVSSPEVIFVAVFREHYSSLCSLADQLAGKILVDVSNPTEKEHLQHRQSNAEYLASLFPACTVVKAFNVISAWALQAGPRDGNRQVLICSDQPEAKRTISEMARAMGFTPLDMGSLASAREVEAIPLRLLPSWKVPTLLALGLFVCFYTYNFIRDVLQPYIRKDENKFYKMPLSVVNTTLPCVAYVLLSLVYLPGVLAAALQLRRGTKYQRFPDWLDHWLQHRKQIGLLSFFFAMLHALYSFCLPLRRSHRYDLVNLAVKQVLANKSRLWVEEEVWRMEIYLSLGVLALGMLSLLAVTSLPSIANSLNWKEFSFVQSTLGFVALILSTMHTLTYGWTRAFEENHYKFYLPPTFTLTLLLPCVIILAKGLFLLPCLSRRLTKIRRGWEKDGAVKFMLPGDHTQGEKTSHV
Regarding B6, the binding entry in test [1], in test [2], in test [3] and in test [4] was “binds” in each case.

B7: mouse mitoferrin (protein, UniProt Q920G8 1-338)
chain: MELRRGGVGNQAAGRRMDGDCRDGGCGSKDAGSEDYENLPTSASVSTHMTAGAMAGILEHSIMYPVDSVKTRMQSLNPDPKARYTSIYGALKRIMHTEGFWRPLRGLNVMMMGAGPAHAMYFACYENMKRTLNDVFSHQGNSHLANGVAGSMATLLHDAVMNPAEVVKQRLQMYNSQHQSAFSCIRTVWRTEGLGAFYRSYTTQLTMNIPFQSIHFITYEFLQEQVNPRRDYNPQSHIISGGLAGALAAAATTPLDVCKTLLNTQENMALSLANVSGRLSGMANAFRTVYQLNGLAGYFKGIQARVIYQMPSTAISWSVYEFFKYILTKRQLENRTLY
B7: the binding entry in test [1], in test [3] and in test [4] was “no binding” in each case.

B8: mouse protoporphyrinogen oxidase (enzyme, UniProt P51175 1-477)
chain: MGRTVIVLGGGISGLAASYHLIRGPSPPKVILVEGSKRLGGWIRSIRGSDGAIFELGPRGIRPAGALGARTLLLVSELGLESEVLPVRGDHPAAQNRFLYVGGTLHPLPSGLRGLLRPSPPFSKPLFWAGLRELLKPRGKEPDETVHSFAQRRLGPEVASLAMDSLCRGVFAGNSRELSIRSCFPSLFQAEQTHRSILLGLLLGAGQSPQPDSSLIRQARAERWSQWSLRGGLEVLPQALHNHLASKGVTVLSGQPVCGLSLQPEGRWKVSLGDSSLEADHIISAIPASELSKLLPAEAAPLARILSTIKAVSVAVVNLQYRGACLPVQGFGHLVPSSEDPTVLGIVYDSVAFPEQDGNPPSLRVTVMLGGYWLQKLKAAGHQLSPELFQQQAQEAAATQLGLKEPPSHCLVHLHKNCIPQYTIGHWQKLDSAMQFLTAQRLPLTLAGASYEGVAVNDCIESGRQAAVAVLGTESNS
B8: the binding result in test [1], in test [2], in test [3] and in test [4] was “binds” each time.

B9: mouse glutaredoxin 5 (glrx5) (protein, UniProt Q80Y14 32-152)
chain: ASSGGQAEQLDALVKKDKVVVFLKGTPEQPQCGFSNAVVQILRLHGVRDYAAYNVLDDPELRQGIKDYSNWPTIPQVYLNGEFVGGCDILLQMHQNGDLVEELKKLGIRSALVDEKDQDSK
B9: the binding entry in test [1], in test [2], in test [3] and in test [4] was “binds” in each case.
